{"source": "patent US10052289B2", "about": "“Composition comprising an active agent with low aqueous solubility” (Flamel Ireland Limited, priority 2008, dated 2018)", "key": {"[1]": {"settings": "pH 7"}, "physchem": {"assay": "physchem", "settings": "pH 7, aqueous with cosolvent or surfactant or cyclodextrin"}}}
{"smiles": "COC(=O)C1=C(C)NC(C)=C(C(=O)OC)C1c1ccccc1[N+](=O)[O-]", "note": "[Nifedipine, nifedipine]", "values": [{"measurement": "Solubilized active ingredient in μmol per g of polymer", "setting": "[1]", "value": "43 μmol per g of polymer"}, {"measurement": "solubility", "setting": "physchem", "value": 867, "unit": "µM"}]}
